From US4948873A (Richter Gedeon Vegyeszeti Gyar, priority 1985, dated 1990) come the findings set out here.

Square brackets hold non-standard residues; d marks the D form. * marks the point of attachment. Arg(NO2) = N=C(NCCC[C@H](N)C(=O)O)N[N+](=O)[O-]; Cbz = O=C(OCc1ccccc1)*

A short description of the data set: general procedure: solution-phase peptide synthesis; azide method (peptide hydrazide, sodium nitrite, HCl); pentafluorophenyl (OPFP).
Setting [1] is: late stage modification step, bis(trifluoroacetate), diacetate or dihydrochloride.
The mark [2] stands for this setting: late stage modification step, diacetate.

Under “coupling step, bis(trifluoroacetate), diacetate or dihydrochloride”, Cbz-D(OMe)L[Arg(NO2)]P-NHEt gave a step yield of 72%.

Regarding Glp-His-Trp-Ser-Dbt-N2H3, under setting [1], the step yield was 70%.

“Glp-His-Trp-Ser-Tyr-Asp(OMe)-Leu-Arg-Pro-ethyl-amide-bis(trifluoroacetate)”: where the note is “coupling step, bis(trifluoroacetate)”, the step yield worked out at 41.6%.

“Glp-His-Trp-Ser-Tyr-Asu-Leu-Arg-Pro-ethylamide diacetate” gave a step yield under setting [2] of 98%.

“Glp-His-Trp-Ser-Tyr-Asu-Leu-Arg-Pro-ethylamide-dihydrochloride” registered a step yield (late stage modification step, dihydrochloride) of 98.7%.

On to H-Asu-Leu-Arg-Pro-ethylamide, for which the step yield under setting [2] is 88%.

H-D(OMe)LRP-NHEt displayed a step yield under setting [2] of 87.3%.

With Z-Asu-Leu-Arg(NO2)-Pro-ethylamide, under setting [1], the step yield was found to be 98%.
